{"source": "patent US12612465B2", "about": "“Formulations comprising PCSK9 specific monoclonal antibodies” (Amgen Inc., priority 2012, dated 2026)", "system": "PCSK9", "assay": "Serum lipids after a single subcutaneous dose in cynomolgus monkeys", "type": "in vivo, cynomolgus monkey", "details": "0.5 mg/kg single SC", "text": "Briefly, naive male cynomolgus monkeys were acclimated to their environment for at least 2 weeks prior to experimentation. Animals were randomized into treatment groups based on a pre-screen of their serum TC, HDL-C, LDL-C, and triglyceride levels, and their body weight. After 1 week, animals were fasted overnight, and bled from the peripheral vasculature (cephalic or saphenous vein), for measurement of baseline serum lipid levels at a time point designated T=0. […] Fasting blood samples were then collected from animals at designated time points over a 45 day period.\nAt specified time points, blood was collected from animals under overnight fasting conditions from the peripheral vasculature (cephalic or saphenous vein). Whole blood was allowed to coagulate for 30 minutes at room temperature. Following centrifugation at 3,000 rpm for 20 minutes, serum was collected. […] Apolipoprotein B serum levels were determined at specified time points (day 0, 3, 6, 15, 24 and 33) by Anilytics, Md., with the following methodology. […]\nA statistical model that considers baseline as a covariate and treatment group as a fixed effect was fit to the log transformed response at each time point for LDL-C, HDL-C, TC, and triglycerides. […] The statistical significance was evaluated at alpha=0.05 using adjusted p-values.", "note": "Some results were stated once for a whole list of compounds, not compound by compound."}
{"substance": "11F1: anti-PCSK9 ABP, light/heavy variable region SEQ ID NO 465/463 [Antibody 11F1]", "values": [{"measurement": "LDL-C returned to levels similar to control animals", "result": "≤ 27", "unit": "days"}]}
